Results reported in doi:10.1101/2023.08.03.551853.
Results are given in words; binding and its absence hold for the method and conditions named. In cells and extracts the contact can be indirect. Here binding means that the protein was enriched with, or labelled near, the bait; the list need not be complete.

Target: T1, FAM210A (Family With Sequence Similarity 210 Member A) (UniProt Q8BGY7)
T1 sequence: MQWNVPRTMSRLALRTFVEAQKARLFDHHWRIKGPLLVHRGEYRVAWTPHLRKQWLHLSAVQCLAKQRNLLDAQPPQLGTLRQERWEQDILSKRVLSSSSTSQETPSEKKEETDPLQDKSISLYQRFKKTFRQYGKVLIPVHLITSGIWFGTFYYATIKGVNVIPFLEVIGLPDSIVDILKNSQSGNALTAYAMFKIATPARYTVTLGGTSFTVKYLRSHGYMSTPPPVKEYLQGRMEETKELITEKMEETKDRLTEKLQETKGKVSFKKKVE
Assay: affinity purification with mass spectrometry

binding: binds
B1: SUCLG2, the β-subunit in the succinyl-CoA synthetase complex (protein, UniProt Q9Z2I8 39-433)
chain: LNLQEYQSKKLMSEHGVRVQRFFVANTAKEALEAAKRLNAKEIVLKAQILAGGRGKGVFNSGLKGGVHLTKDPKVVGELAQQMIGYNLATKQTPKEGVKVNKVMVAEALDISRETYLAILMDRSHNGPVIVGSPQGGVDIEEVAASSPELIFKEQIDIFEGIKDSQAQRMAENLGFLGSLKNQAADQITKLYHLFLKIDATQVEVNPFGETPEGQVVCFDAKINFDDNAEFRQKDIFAMDDKSENEPIENEAARYDLKYIGLDGNIACFVNGAGLAMATCDIIFLNGGKPANFLDLGGGVKEAQVYEAFKLLTSDPKVEAILVNIFGGIVNCAIIANGITKACRELELKVPLVVRLEGTNVQEAQNILKSSGLPITSAVDLEDAAKKAVASVAKK
